The target of test [1] is T1, StSN2-pGBKT7 (full-length StSN2, yeast two-hybrid bait fusion) (potato) (UniProt Q93X17).
T1 sequence: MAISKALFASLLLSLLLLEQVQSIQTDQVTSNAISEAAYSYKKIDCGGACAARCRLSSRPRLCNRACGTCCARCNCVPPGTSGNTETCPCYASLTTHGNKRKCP
The test can be described thus: two-hybrid; StSN2-pGBKT7 and StGAPC1-pGADT7 cotransformed into yeast AH109; growth on SD/-Leu-Trp-His plates.

For test [2], the target named is Cytoplasmic glyceraldehyde-3-phosphate dehydrogenase 1 (StGAPC1) (potato (endogenous in tubers)). Nature of the test: co-IP; tuber total protein, 10 ul purified anti-GAPC1 antibody and 20 ul protein A beads, overnight at 4°C; western blot.

No constants are given. Whether binding was seen depends on the method and setting. Binding calls can cover weak binding; strength is not graded here. For some assays here: Tags and fused reporters may be left off the sequences shown. For some assays here: In cells and extracts the contact can be indirect.

For the molecule “StGAPC1-pGADT7 (yeast two-hybrid prey fusion) (potato) (enzyme)”, the binding result in test [1] was “binds”.

B1: Snakin-2 (StSN2) (protein, UniProt Q93X17 39-104)
chain: YSYKKIDCGGACAARCRLSSRPRLCNRACGTCCARCNCVPPGTSGNTETCPCYASLTTHGNKRKCP
As for B1, the binding result in test [2] is given as “binds”.
